Measurements reported in PMC8854428.
These are yes or no findings as the source states them, for the method shown. In cells and extracts the contact can be indirect. Some results given as binding are weak or reduced against the parent protein; the word gives no strength. Where a sequence is shown, tags or fusion partners need not be part of it.

Sequences of proteins named here, by UniProt entry; tags and fusion partners are left off.
UniProt P56962: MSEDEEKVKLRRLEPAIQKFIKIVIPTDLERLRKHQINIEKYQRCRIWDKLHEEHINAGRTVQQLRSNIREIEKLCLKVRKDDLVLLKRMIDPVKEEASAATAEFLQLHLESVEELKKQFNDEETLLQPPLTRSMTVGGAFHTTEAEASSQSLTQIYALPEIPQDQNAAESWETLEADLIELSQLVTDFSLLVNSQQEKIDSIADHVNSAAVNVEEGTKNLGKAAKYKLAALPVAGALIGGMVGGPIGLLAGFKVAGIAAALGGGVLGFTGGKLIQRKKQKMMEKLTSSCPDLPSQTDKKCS

T1: Flag-tagged Snap29 (mouse) (UniProt Q9ERB0)
T1 sequence: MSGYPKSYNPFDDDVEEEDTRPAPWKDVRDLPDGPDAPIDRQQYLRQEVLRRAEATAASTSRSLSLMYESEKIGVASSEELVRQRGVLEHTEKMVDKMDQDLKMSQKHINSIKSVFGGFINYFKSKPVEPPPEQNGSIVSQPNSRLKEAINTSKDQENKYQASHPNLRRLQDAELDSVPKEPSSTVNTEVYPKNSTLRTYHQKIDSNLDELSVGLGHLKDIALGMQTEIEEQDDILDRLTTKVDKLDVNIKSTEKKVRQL


target: T1, Flag-tagged Snap29 (mouse); assay: co-IP; Flag-Snap29 transfected into shCtrl or shKANSL1 HeLa cells, EBSS 2 h, with or without 13-cis retinoic acid pretreatment (5 uM, 24 h); lysed in M2 buffer; anti-Flag M2 affinity gel overnight at 4 °C, five washes, eluted with 3x FLAG peptide; western blot

Molecule	binding
STX17 (from UniProt P56962 1-302)	binds
YKT6 (protein, UniProt O15498 1-198) MKLYSLSVLYKGEAKVVLLKAAYDVSSFSFFQRSSVQEFMTFTSQLIVERSSKGTRASVKEQDYLCHVYVRNDSLAGVVIADNEYPSRVAFTLLEKVLDEFSKQVDRIDWPVGSPATIHYPALDGHLSRYQNPREADPMTKVQAELDETKIILHNTMESLLERGEKLDDLVSKSEVLGTQSKAFYKTARKQNSCCAIM	binds
STX7 (protein, UniProt O15400 1-261) MSYTPGVGGDPAQLAQRISSNIQKITQCSVEIQRTLNQLGTPQDSPELRQQLQQKQQYTNQLAKETDKYIKEFGSLPTTPSEQRQRKIQKDRLVAEFTTSLTNFQKVQRQAAEREKEFVARVRASSRVSGSFPEDSSKERNLVSWESQTQPQVQVQDEEITEDDLRLIHERESSIRQLEADIMDINEIFKDLGMMIHEQGDVIDSIEANVENAEVHVQQANQQLSRAADYQRKSRKTLCIIILILVIGVAIISLIIWGLNH	binds
